# Data reported in article PMC6528599.
# Negatives hold for the conditions tested. Protein sequences can lack the tags named with them.
# Molecular target: T1, GlaR (YugA) (Lactococcus lactis IL1403) (UniProt Q7DAT6)
# T1 sequence (looked up): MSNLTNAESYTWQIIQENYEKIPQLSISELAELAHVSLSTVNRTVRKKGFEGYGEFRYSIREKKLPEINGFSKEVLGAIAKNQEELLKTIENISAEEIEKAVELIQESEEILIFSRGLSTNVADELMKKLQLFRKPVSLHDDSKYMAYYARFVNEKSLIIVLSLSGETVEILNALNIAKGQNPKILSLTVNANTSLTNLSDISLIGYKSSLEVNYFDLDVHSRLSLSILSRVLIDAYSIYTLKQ
# Assay: EMSA
# Conditions: 250 mM galactose, EMSA: 1 nM DNA, 10 mM Tris-HCl pH 8.5, 10 mM MgCl2, 100 mM KCl, 0.1 mg/ml BSA (printed as 10x binding buffer), 20 ul, 20 min at 37 C, recombinant protein, residues 1-244, probe letters rebuilt from the primers and the genome
Sequence,"binding result (10 mM MgCl2, 4 uM GlaR)","binding result (10 mM MgCl2, bound at 4 uM and also at 1-3.5 uM GlaR)"
CAAGTGGCTCAATCGTTCCATTTTGTAAAGCAAGACTAATAAAATCTTGAATTGATTGATAAATTGACATAAAATACTTTCTAATTTACTTCTGTAAGTAAAGTTCTTGCTTTGTCTTGATTAGTGAGTTTTGGAAATGAATACAAAATTCAAGCACTTAGTTTTGAGTGCTTGAATTTGCTATCACTAATTTAATGTTAACTCACTTAAATCACTCATAAAATTTTTTAAATATTATTTGATTTATTCAACATCCAACTTTGTTGAACCAGAACCAATTTGAGCGACGTAAAAGCTTGCTGGATAACCGACAAC (double strand) [galT upstream region],no binding,
CCATTTGTTGCTCTGGCTGAGTCACTGAAGTTTGATTAAACTTTTCCAGTAAAACTAAAGCTTCTTGTTGCTCTTTCCATAATTTTTGATCGTTAGGAAAGTAGAGTTCTTCTGTGTGAACTCGTTTGTAGCTTTCTAATTTAGGCATTTTATCAACTCCTTTTTAAAGCTCTCTTGATTTATGAAAATTAATTATTTACGAAATTTATAAATTCATAAAAACCTTTTTGTCCTACTTCATTATCTTTGAATACTCCGGCATCTTTTAACACCTGTTCAAATACTTCTCCAACTGCTTCCTG (double strand) [thgA upstream region],no binding,
CTTTCATGGGAATCCTCCTTTATACTAAATCTACTTAATTCATAAGTAAATCTACAAAGCTACTGTTTTGCCTTTTGAAACGAGTAATCCTTGGTTGGGAAAACTTTTATTTTGGATAAGTTTTTAAAAGCGAAACAGTCTTCAATTTCATTTTGAAATCGCTCACATTTAGAGTATAACACTTTGATTTAAGAAAGGGTTTCCAATTTTAGCTTATCTTTTGGAAACCCTTTCTATTTTGCTCTTTTTATAAAAAAAAGCTCGATATGACTTGATATCGAAGCATTATTGTTTTAAAGTATAAATGGAGTAAGCATCAATTAG (double strand) [lacS upstream region],,binds
